Source: article PMC4729484

Chains of the proteins cited; added tags and fusions are not shown. Lines headed by an entry give the natural chain unless they say otherwise; changes in a name come on top.
UniProt Q8C6B2: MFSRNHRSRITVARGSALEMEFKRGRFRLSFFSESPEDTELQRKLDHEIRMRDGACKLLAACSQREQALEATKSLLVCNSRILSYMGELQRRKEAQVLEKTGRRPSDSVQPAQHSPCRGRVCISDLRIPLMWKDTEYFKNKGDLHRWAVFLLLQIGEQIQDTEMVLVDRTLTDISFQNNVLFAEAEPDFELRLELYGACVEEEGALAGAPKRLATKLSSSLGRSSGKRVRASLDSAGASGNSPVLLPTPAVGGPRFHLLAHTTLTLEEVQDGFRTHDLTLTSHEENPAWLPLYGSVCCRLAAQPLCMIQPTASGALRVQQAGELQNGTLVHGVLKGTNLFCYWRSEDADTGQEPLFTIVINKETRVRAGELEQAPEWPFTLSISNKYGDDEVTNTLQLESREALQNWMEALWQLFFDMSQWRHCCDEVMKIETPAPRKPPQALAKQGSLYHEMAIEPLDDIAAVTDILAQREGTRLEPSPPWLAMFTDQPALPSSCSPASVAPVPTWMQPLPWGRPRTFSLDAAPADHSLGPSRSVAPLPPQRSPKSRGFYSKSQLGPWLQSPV
UniProt P61586: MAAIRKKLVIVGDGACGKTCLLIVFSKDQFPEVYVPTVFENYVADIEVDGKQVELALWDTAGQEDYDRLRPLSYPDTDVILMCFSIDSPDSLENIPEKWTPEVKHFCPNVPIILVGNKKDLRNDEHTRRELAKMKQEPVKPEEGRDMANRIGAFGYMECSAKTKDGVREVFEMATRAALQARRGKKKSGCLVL

Molecular target: glutathione-S-transferase-Rhotekin-RhoA-binding domain (GST-RBD) (UniProt Q8C6B2)
Assay: pull-down; RhoA activation assay: GST-RBD bound to glutathione-sepharose beads incubated with lysates of COS-7 cells (transfected with GFP-RhoA constructs or not; with or without EGF, with or without U0126); buffer 50 mM Tris-HCl pH 7.6, 150 mM NaCl, 1% Triton X-100, 10 mM MgCl2; 4°C, 2 h; immunoblot with anti-GFP or anti-RhoA; only the target purified

Row | binding | Substance
1 | binds | GFP-RhoA (from UniProt P61586 1-193)
2 | binds | GFP-RhoA S88E/T100E (from UniProt P61586 1-193)

No constants are given. Whether binding was seen depends on the method and setting. Binding seen in cells or lysates may run through a third protein. A result given as binding can be weak or reduced; the word gives no strength.
